Read-outs that look alike come from different tables or passages of the source. These are yes or no findings as the source states them, for the method shown. Binding seen in cells or lysates may run through a third protein. Some binding calls cover weakened binding; strength is not graded here. Sequences can lack the tags named with a protein.
Tests used:
Assay in all cases: co-IP; lysates (TNTE buffer: 10 mM Tris-Cl pH 7.5, 150 mM NaCl, 0.3% Triton X-100, 5 mM EDTA) of transfected HEK293T cells, 750 ug protein on FLAG affinity gel 2 h at 4°C, washed with TBS, immunoblot
FLAG-MKRN1 = biological target: T1, FLAG-MKRN1 (UniProt Q9UHC7)
T1 sequence: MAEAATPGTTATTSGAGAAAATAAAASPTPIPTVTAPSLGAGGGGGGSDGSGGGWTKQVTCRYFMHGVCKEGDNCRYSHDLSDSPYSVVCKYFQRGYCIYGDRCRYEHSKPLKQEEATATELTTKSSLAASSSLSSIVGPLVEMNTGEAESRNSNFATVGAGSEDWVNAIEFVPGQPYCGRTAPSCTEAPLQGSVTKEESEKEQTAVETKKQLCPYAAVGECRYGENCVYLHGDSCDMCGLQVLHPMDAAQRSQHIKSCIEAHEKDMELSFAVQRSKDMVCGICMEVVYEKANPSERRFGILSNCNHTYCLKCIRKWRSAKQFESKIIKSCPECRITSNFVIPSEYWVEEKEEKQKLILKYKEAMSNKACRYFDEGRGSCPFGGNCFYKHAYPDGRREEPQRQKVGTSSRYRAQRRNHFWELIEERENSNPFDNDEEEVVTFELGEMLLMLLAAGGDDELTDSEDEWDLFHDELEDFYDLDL

Chains of the proteins cited; added tags and fusions are not shown.
UniProt Q93008: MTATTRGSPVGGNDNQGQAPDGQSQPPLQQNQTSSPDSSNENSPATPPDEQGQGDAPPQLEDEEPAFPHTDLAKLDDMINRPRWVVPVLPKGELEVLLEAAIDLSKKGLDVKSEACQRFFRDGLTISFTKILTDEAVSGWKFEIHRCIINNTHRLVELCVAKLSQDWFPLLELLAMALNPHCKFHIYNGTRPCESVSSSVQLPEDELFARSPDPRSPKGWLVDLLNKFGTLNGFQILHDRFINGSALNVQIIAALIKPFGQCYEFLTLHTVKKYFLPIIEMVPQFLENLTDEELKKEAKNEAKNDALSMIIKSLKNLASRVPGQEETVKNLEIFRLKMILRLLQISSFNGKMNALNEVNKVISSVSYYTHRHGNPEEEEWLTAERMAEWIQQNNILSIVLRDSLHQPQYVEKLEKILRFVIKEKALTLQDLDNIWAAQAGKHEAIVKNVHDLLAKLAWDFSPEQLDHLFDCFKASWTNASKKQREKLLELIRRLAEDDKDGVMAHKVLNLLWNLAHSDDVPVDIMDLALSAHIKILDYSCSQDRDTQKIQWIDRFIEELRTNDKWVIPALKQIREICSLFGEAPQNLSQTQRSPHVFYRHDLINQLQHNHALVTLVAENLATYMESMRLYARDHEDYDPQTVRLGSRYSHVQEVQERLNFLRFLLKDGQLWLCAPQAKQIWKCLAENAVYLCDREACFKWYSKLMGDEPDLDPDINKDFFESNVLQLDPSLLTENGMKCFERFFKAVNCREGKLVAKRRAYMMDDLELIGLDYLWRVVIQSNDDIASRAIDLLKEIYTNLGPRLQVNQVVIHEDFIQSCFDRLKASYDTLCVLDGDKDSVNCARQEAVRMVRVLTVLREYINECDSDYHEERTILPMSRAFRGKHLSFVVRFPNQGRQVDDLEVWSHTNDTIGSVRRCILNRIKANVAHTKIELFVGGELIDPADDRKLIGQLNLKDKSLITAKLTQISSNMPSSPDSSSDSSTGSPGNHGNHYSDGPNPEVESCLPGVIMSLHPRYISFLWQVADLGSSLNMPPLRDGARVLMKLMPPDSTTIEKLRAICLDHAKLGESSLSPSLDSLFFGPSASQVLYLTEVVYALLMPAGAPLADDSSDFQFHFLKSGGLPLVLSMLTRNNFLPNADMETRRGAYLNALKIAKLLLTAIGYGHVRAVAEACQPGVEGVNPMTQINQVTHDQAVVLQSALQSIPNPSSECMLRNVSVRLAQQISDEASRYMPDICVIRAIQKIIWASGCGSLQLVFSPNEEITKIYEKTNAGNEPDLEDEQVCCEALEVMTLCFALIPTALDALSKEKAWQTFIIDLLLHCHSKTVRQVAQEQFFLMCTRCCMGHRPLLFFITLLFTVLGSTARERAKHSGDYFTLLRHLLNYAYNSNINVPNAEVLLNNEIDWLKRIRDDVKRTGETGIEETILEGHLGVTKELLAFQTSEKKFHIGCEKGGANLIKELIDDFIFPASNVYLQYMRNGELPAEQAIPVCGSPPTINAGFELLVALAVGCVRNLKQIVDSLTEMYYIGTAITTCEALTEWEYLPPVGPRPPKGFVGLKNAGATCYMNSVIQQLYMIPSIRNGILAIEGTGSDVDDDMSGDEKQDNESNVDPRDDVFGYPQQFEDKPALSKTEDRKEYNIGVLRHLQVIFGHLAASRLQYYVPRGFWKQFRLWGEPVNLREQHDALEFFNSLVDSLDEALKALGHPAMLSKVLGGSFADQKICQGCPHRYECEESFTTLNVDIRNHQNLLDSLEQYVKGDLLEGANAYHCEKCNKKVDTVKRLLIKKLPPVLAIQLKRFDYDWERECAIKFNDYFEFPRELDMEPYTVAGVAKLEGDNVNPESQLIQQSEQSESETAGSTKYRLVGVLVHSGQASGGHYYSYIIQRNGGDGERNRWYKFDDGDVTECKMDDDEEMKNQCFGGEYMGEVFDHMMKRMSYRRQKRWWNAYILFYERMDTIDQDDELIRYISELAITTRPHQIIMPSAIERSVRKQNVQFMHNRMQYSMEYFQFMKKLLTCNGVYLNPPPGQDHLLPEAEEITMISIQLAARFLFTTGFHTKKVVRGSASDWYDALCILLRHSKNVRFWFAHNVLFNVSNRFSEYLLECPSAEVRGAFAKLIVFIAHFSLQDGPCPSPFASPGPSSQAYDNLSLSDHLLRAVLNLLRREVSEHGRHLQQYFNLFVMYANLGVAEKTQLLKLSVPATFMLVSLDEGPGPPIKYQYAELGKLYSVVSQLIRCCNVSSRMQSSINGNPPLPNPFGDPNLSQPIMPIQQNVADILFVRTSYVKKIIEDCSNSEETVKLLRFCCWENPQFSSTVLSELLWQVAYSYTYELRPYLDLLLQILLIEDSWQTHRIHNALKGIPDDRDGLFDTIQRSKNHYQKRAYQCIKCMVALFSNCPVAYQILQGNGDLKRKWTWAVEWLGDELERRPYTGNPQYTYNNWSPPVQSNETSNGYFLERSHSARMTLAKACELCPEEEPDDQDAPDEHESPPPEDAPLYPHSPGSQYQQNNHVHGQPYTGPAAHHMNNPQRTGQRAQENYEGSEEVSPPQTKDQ

MKRN2-FLAG [1] = biological target: T2, MKRN2-FLAG (UniProt Q9H000)
T2 sequence: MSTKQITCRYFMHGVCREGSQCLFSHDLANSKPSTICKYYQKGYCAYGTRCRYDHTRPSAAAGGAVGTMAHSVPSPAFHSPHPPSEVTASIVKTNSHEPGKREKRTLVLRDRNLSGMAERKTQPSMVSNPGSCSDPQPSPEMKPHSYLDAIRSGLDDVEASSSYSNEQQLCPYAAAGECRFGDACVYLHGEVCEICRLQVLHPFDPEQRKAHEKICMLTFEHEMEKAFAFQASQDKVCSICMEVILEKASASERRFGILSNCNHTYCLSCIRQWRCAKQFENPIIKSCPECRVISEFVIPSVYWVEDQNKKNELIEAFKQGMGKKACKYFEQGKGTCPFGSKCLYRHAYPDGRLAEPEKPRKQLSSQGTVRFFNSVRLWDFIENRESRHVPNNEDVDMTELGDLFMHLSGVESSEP

ZNF598-FLAG (human) = biological target: T3, ZNF598-FLAG (human) (UniProt Q86UK7)
T3 sequence: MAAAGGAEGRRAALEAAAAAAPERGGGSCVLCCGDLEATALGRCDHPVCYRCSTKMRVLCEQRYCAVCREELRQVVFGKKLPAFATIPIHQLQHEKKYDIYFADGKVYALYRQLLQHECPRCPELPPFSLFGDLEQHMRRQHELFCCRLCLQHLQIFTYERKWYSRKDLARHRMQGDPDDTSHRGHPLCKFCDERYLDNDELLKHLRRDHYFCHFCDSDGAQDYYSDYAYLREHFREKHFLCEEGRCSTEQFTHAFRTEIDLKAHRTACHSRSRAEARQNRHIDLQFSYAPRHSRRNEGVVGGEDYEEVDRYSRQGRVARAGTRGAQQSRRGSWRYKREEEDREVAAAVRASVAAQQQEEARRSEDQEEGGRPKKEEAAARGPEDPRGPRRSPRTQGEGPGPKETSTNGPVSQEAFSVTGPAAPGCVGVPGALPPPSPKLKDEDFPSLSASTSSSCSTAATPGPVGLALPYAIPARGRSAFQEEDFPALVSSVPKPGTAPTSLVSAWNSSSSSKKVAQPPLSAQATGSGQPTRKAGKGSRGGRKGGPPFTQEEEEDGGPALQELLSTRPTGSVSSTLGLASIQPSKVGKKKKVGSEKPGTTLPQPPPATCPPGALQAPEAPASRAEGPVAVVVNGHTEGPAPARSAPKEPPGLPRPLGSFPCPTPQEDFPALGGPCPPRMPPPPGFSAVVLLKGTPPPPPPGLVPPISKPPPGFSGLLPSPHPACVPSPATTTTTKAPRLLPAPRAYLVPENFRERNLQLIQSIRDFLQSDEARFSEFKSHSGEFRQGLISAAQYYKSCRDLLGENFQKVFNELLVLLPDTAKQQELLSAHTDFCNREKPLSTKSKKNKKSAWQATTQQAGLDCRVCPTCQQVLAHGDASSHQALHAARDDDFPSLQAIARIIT

FLAG-MKRN1, Q9UHC7 = biological target: T4, FLAG-MKRN1, Q9UHC7; details: remark: other sources report otherwise
T4 chain: T1 sequence

MKRN2-FLAG [2] = biological target: T2, MKRN2-FLAG; remark: listed apart in the source

USP9X (from UniProt Q93008 1-2554) (enzyme)
binding (FLAG-MKRN1): binds | binding (MKRN2-FLAG [1]): binds | binding (ZNF598-FLAG (human)): binds

B1: ZNF598, Q86UK7 1-904 (enzyme)
chain: T3 sequence
binding (FLAG-MKRN1, Q9UHC7): binds

B2: ZNF598 (enzyme, UniProt Q86UK7 1-904)
chain: T3 sequence
binding (MKRN2-FLAG [2]): binds
